Experimental data: PubChem BioAssay AID686937 (Drosophila RNAi Screening Center, 2013)

Purpose: 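Knock-downs that reduce output of a secreted reporter enzyme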 (primary screen)
System: Drosophila S2 cells expressing secreted horseradish peroxidase
Reagents: long dsRNA against Drosophila genes
Timing: about 5.5 days (5 days dsRNA, then 12 h reporter induction)
Conditions: reporter expression induced after 5 days of dsRNA, read 12 h later; inducer not stated
Measurement: 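Chemiluminescent measurement of peroxidase in the medium 12 h after reporter induction, following 5 days of dsRNA, given as a z-score per plate; higher means more secretion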
Direction: z-score: higher = more reporter secreted into medium
The deposit covers about 23,000 reagents; below is a random part of those with a known target gene and a result. 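Reduced-secretion tags in replicate 1 do not always agree with the z-scores; no criterion for assigning the tags was given.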 Reagents against one gene are numbered here. Further read-outs or replicates are left out here. The record does not give: the amount of reagent.

For CG34284 the deposit lists z-score, replicate 1 = 0.02. Against Vps25 (Vacuolar protein sorting 25) the deposit lists z-score, replicate 1 = -0.04. After knock-down of halo the results were z-score, replicate 1 = 0.15. Against tweek #1 the deposit lists z-score, replicate 1 = -0.07. With knock-down of tweek #2, the record shows z-score, replicate 1 = -0.43. After knock-down of tweek #3, the record shows z-score, replicate 1 = 0.42.

shep (alan shepard) #1 showed z-score, replicate 1 = -4.75. shep (alan shepard) #2 gave z-score, replicate 1 = 0.78. After knock-down of shep (alan shepard) #3, the record shows z-score, replicate 1 = -0.41. For CG16775, the values are z-score, replicate 1 = 0.37. After knock-down of CG4462 the results were z-score, replicate 1 = 0.19. With knock-down of CG16717 the results were z-score, replicate 1 = 0.29.

After knock-down of betaCOP (Coat Protein (coatomer) beta), the record shows z-score, replicate 1 = -5.63. Lasp showed z-score, replicate 1 = 0.7. CG5768 scored z-score, replicate 1 = 0.3. Against AOX3 (Aldehyde oxidase 3), the entry reads z-score, replicate 1 = 0.34. Silencing of Oseg5 (Outer segment 5) came out at: z-score, replicate 1 = 0.45. For CG3650 the deposit lists z-score, replicate 1 = 0.24.

For tous (testes of unusual size), the entry reads z-score, replicate 1 = 0.06. Against CG3226, the entry reads z-score, replicate 1 = 0.38. With knock-down of CG4115, the screen gave z-score, replicate 1 = 0.45. After knock-down of cdi (center divider), the record shows z-score, replicate 1 = -0.05. For Ino80 (INO80 complex subunit) #1, the entry reads z-score, replicate 1 = 0.18. Knock-down of Ino80 (INO80 complex subunit) #2 gave: z-score, replicate 1 = 0.45.

With knock-down of Ino80 (INO80 complex subunit) #3, the record shows z-score, replicate 1 = 0.32. For CG11095, the entry reads z-score, replicate 1 = 0.18. CG12795 showed z-score, replicate 1 = 0.11. JMJD7 (Jumonji domain containing 7) scored z-score, replicate 1 = 0.7. Against Smug, the entry reads z-score, replicate 1 = -0.03. With knock-down of CG12995, the screen gave z-score, replicate 1 = 0.28.

With knock-down of Sap-r (Saposin-related) #1, the record shows z-score, replicate 1 = 0. Knock-down of Sap-r (Saposin-related) #2 came out at: z-score, replicate 1 = -1.03. After knock-down of Rnf11 (Ring finger protein 11), the record shows z-score, replicate 1 = 0.09. With knock-down of Tpi (Triose phosphate isomerase), the screen gave z-score, replicate 1 = 0.39. Depletion of ATPCL (ATP citrate lyase) resulted in: z-score, replicate 1 = 0.27. CG34049 gave z-score, replicate 1 = -0.41.

Silencing of CG4168 #1 came out at: z-score, replicate 1 = -0.34. After knock-down of CG4168 #2 the results were z-score, replicate 1 = 0.31. After knock-down of CG4168 #3, the screen gave z-score, replicate 1 = 0.35. Silencing of CG4168 #4 resulted in: z-score, replicate 1 = 0.98. CG4168 #5 scored z-score, replicate 1 = 0.26. For CG7606 #1 the deposit lists z-score, replicate 1 = 0.51.

Depletion of CG7606 #2 gave: z-score, replicate 1 = -0.29. Knock-down of Cyp4d21 (Cytochrome P450 4d21) came out at: z-score, replicate 1 = 0.05. With knock-down of CG11458 the results were z-score, replicate 1 = 0.34. Depletion of MFS16 (Major Facilitator Superfamily Transporter 16) came out at: z-score, replicate 1 = -0.12. With knock-down of phu (phurba tashi), the screen gave z-score, replicate 1 = 0.22. After knock-down of gd (gastrulation-defective), the screen gave z-score, replicate 1 = 0.2.

For CG4872, the values are z-score, replicate 1 = 0.43. With knock-down of CG6675, the screen gave z-score, replicate 1 = -0.08. CG30325 gave z-score, replicate 1 = 0.76.
